These are yes or no findings as the source states them, for the method shown. Binding seen in cells or lysates may run through a third protein. Some results given as binding are weak or reduced against the parent protein; the word gives no strength.
Experiments:
[1] = target: HIF-1α, exogenous (HIF-1α expression plasmid in 293T cells) (UniProt Q16665); assay: co-IP; PDK1 expression vector and HIF-1α expression plasmid transiently transfected together into 293T cells
[2] = target: Hypoxia-inducible factor 1α (HIF-1α), endogenous (human (endogenous in BT-549, MCF7, HEK-293T)) (UniProt Q16665); assay: co-IP; endogenous proteins; BT-549-NC/-KO and MCF7-NC/-sh-PDK1 cells pretreated with CoCl2 for 6 h; lysates incubated with antibody-coated magnetic beads 1 h at room temperature, washed with PBST

Amino acid sequences for entries named in this document (tags omitted). Residues count along the entry.
UniProt Q16665: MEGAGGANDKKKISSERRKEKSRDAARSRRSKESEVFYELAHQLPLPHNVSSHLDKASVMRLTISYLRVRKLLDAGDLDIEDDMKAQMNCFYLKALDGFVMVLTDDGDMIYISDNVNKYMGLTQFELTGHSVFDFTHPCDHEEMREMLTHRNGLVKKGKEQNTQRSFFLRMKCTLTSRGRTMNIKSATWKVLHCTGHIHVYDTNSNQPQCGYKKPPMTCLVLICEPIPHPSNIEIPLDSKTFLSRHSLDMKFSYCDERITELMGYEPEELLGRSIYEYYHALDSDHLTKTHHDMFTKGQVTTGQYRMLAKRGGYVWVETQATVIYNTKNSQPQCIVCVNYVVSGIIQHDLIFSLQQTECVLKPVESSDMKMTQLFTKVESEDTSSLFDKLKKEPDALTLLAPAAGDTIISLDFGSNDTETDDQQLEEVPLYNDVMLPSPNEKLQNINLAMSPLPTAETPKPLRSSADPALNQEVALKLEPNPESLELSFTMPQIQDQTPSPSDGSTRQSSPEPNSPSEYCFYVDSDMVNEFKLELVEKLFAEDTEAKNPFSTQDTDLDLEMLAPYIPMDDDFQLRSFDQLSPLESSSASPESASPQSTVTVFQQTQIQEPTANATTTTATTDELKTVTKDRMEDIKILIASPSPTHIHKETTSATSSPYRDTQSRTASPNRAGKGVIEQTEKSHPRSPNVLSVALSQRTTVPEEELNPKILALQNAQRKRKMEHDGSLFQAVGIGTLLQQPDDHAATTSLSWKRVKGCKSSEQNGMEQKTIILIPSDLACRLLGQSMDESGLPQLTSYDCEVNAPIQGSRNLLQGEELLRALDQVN
UniProt Q15118, residues 29-436: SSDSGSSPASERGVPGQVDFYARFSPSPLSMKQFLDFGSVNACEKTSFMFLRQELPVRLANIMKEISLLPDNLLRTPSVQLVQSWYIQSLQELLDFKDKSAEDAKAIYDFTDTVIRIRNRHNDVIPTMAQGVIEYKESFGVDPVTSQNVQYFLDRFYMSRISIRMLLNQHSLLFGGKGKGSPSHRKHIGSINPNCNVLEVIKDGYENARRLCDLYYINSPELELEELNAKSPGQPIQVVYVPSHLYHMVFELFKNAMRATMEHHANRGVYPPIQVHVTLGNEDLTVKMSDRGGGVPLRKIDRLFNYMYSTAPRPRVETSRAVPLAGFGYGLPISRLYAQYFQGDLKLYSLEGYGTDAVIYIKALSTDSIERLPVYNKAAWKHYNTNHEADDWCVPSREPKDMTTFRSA

binding [1]	binding [2]	Substance
binds		PDK1, exogenous (PDK1 expression vector in 293T cells) (from UniProt Q15118 29-436) (enzyme)
	binds	Pyruvate dehydrogenase kinase 1 (PDK1), endogenous (from UniProt Q15118 29-436) (enzyme)
